Results taken from publication PMC6216208.
These are yes or no findings as the source states them, for the method shown. Binding seen in cells or lysates may run through a third protein. Some binding calls cover weakened binding; strength is not graded here. Sequences can lack the tags named with a protein.

Chains of the proteins cited; added tags and fusions are not shown.
UniProt P15056: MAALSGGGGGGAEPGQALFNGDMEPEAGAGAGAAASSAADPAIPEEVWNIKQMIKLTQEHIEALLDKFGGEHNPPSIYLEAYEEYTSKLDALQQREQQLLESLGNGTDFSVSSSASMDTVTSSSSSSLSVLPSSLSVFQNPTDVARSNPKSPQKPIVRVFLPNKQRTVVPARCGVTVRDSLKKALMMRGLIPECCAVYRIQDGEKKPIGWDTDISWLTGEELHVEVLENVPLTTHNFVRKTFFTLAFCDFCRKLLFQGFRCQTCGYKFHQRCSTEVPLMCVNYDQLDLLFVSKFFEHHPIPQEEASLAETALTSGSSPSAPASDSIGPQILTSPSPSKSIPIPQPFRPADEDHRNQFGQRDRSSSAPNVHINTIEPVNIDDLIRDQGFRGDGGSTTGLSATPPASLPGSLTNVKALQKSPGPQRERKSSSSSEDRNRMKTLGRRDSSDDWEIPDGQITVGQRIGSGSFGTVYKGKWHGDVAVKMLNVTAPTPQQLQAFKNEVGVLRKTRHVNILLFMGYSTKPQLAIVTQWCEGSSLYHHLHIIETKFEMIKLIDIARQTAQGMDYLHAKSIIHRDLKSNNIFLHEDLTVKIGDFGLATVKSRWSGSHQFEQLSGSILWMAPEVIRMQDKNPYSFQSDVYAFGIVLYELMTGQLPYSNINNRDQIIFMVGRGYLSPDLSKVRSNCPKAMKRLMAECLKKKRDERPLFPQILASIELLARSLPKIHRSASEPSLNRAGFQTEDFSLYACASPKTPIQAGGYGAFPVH

Target: T1, c-Myc-tagged Rit2 (protein product of the Ras-like without CAAX 2 gene, RIT2) (human) (UniProt Q99578)
T1 sequence: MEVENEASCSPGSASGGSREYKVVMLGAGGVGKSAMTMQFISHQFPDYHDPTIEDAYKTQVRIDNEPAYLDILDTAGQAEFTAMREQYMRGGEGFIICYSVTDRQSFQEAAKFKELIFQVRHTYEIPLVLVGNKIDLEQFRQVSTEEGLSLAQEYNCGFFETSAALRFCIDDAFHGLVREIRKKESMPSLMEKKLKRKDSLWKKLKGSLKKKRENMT
Assay: co-IP; HEK293T cells transiently transfected with c-Myc-Rit2 and/or V5-B-Raf, lysed after 48 h in RIPA buffer with protease and phosphatase inhibitors; lysates incubated with anti-c-Myc or anti-V5 antibody-conjugated agarose beads, washed five times, immunoblot

binding: binds
Substance: V5-tagged B-Raf (from UniProt P15056 1-766)
